Experimental data published in the supplement of paper PMC9015667.
Where a name gives a salt, the structure may show the parent alone. The list shows a part of the results. Single values are uncertain, as repeats are few or missing.

System: M249P (parental melanoma line)
Assay: reduction in cell viability relative to untreated/vehicle; higher = more growth inhibition
Details: 200 nM; 72 h

| SMILES | reduction in cell viability [%] |
| --- | --- |
| CC(NCCc1ccc(O)cc1)C(O)c1ccc(O)cc1 (stereo unspecified) [Ritodrine hydrochloride] | < 0 |
| O=C1CSC(=O)N1C(CCc1ccncc1)COc1ccc(-c2cccc([N+](=O)[O-])c2)cc1 (stereo unspecified) | < 0 |
| CN(C)Cc1c(C(=O)NCCOc2ccc(C(=O)NO)cc2)oc2ccccc12 [Abexinostat] | 54.4 |
| CCCCN1CCC(CNC(=O)c2c3n(c4ccccc24)CCCO3)CC1 [Piboserod hydrochloride] | < 0 |
| CN1C2CCCC1CC(NC(=O)c1nn(C)c3ccccc13)C2 (stereo unspecified) [Granisetron hydrochloride] | < 0 |
| O=C(c1ccc(F)cc1)C1CCN(CCn2c(=O)[nH]c3ccccc3c2=O)CC1 [Ketanserin] | < 0 |
| NCc1c[nH]c(=S)n1[C@H]1CCc2c(F)cc(F)cc2C1 [Nepicastat hydrochloride] | < 0 |
| OCCC#Cc1nc(-c2ccc(F)cc2)c(-c2ccncc2)n1CCCc1ccccc1 | < 0 |
| CC(C)n1nc(-c2ccc3oc(N)nc3c2)c2c(N)ncnc21 | 72.3 |
| Nc1nnc(-c2cccc(Cl)c2Cl)c(N)n1 [Lamotrigine] | < 0 |
| Cn1cc(-c2cnn3c(N)c(Br)c([C@@H]4CCCNC4)nc23)cn1 | 11.6 |
| CC(C)(C)c1nc(-c2cccc(NS(=O)(=O)c3c(F)cccc3F)c2F)c(-c2ccnc(N)n2)s1 [Dabrafenib] | 70.4 |
| CCOc1ccn(-c2ccc(F)cc2)c(=O)c1C(=O)Nc1ccc(Oc2ccnc(N)c2Cl)c(F)c1 | < 0 |
| Cc1nc2cnc3ccc(C#Cc4cccnc4)cc3c2n1-c1ccc(C(C)(C)C#N)cc1 | 24.6 |
| O=C(O)[C@@H](c1ccc(OCc2ccc3ccccc3n2)cc1)C1CCCC1 [Veliflapon] | < 0 |
| NC(=O)c1ncn([C@@H]2O[C@H](CO)[C@@H](O)[C@H]2O)c1O [Mizoribine] | < 0 |
| COc1cc2nccc(Oc3ccc(NC(=O)Nc4ccc(F)cc4F)c(F)c3)c2cc1OC | 14.2 |
| Cc1ccnc(NS(=O)(=O)c2ccc(NC(=O)Nc3ccc(S(=O)(=O)Nc4nccc(C)n4)cc3)cc2)n1 | < 0 |
| Cc1c(OCC(F)(F)F)ccnc1C[S+]([O-])c1nc2ccccc2[nH]1 (stereo unspecified) [Lansoprazole] | < 0 |
| C[C@H]1C[C@H]2[C@@H]3CCC4=CC(=O)C=C[C@]4(C)[C@H]3C(=O)C[C@]2(C)[C@@]1(O)C(=O)CO [Meprednisone] | < 0 |
| COc1ccc(-c2oc3cc(OC)ccc3c2C(=O)c2ccc(C#N)cc2)cc1 | < 0 |
| C[C@@H]1CCN(C(=O)CC#N)C[C@@H]1N(C)c1ncnc2[nH]ccc12 [Tofacitinib] | < 0 |
| c1coc(CNc2ncnc3[nH]cnc23)c1 [Kinetin] | < 0 |
| Nc1ncnc2c1ncn2[C@@H]1O[C@H](CO)C[C@H]1O [Cordycepin] | < 0 |
| CCN(CC)C(=S)SSC(=S)N(CC)CC [Disulfiram] | 70.9 |
| COc1ccc2nc3cc(Cl)ccc3c(Nc3cc(CN4CCCC4)c(O)c(CN4CCCC4)c3)c2n1 [Pyronaridine] | < 0 |

System: M249R (matched melanoma line resistant to BRAF inhibitors)
Assay: as above
Details: 200 nM; 72 h

| SMILES | reduction in cell viability [%] |
| --- | --- |
| COc1cc(/C=C/C(=O)O)ccc1O [Fumalic acid] | 5.66 |
| CS(=O)(=O)OCCCCOS(C)(=O)=O [Busulfan] | < 0 |
| NCCS(=O)(=O)O [l-Taurine] | < 0 |
| CCN(CC)CCCCNc1nc2cc(Cl)c(Cl)cc2nc1-c1ccc(-c2cccs2)s1 | < 0 |
| CCc1cccc(CC)c1NC(=O)N1Cc2[nH]nc(NC(=O)c3ccc(N4CCN(C)CC4)cc3)c2C1 | < 0 |
| N#CC1(c2ccc(NC(=O)c3cccnc3NCc3ccncc3)cc2)CCCC1 [Apatinib] | < 0 |
| O=C(CCCN1CCC(O)(c2ccc(Cl)cc2)CC1)c1ccc(F)cc1 [Haloperidol] | < 0 |
| Cc1ccc(NC(=O)c2ccc(CN3CCN(C)CC3)cc2)cc1Nc1nc(-c2cccnc2)cs1 [Masitinib] | < 0 |
| CCCN[C@H]1CCc2nc(N)sc2C1 [Pramipexole hydrochloride] | < 0 |
| CCCCCCCCCCCCCCCCCCCCCCO [Docosanol] | < 0 |
| C[C@@H]1CN(Cc2ccc(F)cc2)[C@@H](C)CN1C(=O)c1cc2c(C(=O)C(=O)N(C)C)cn(C)c2cc1Cl [Talmapimod] | < 0 |
| CO[C@@H]1[C@H](N(C)C(=O)c2ccccc2)C[C@H]2O[C@]1(C)n1c3ccccc3c3c4c(c5c6ccccc6n2c5c31)C(=O)NC4=O [Stauprimide] | < 0 |
| O=C(C[C@@H]1C/C=C/CCC(=O)O[C@H](c2ccccc2)CNC1=O)NCc1ccc(Cl)cc1 [Robotnikinin] | < 0 |
| CC(C)(Oc1ccc(C2CC2(Cl)Cl)cc1)C(=O)O (stereo unspecified) [Ciprofibrate] | < 0 |
| CC(NCCc1ccc(O)cc1)C(O)c1ccc(O)cc1 (stereo unspecified) [Ritodrine hydrochloride] | < 0 |
| O=C1CSC(=O)N1C(CCc1ccncc1)COc1ccc(-c2cccc([N+](=O)[O-])c2)cc1 (stereo unspecified) | < 0 |
| CN(C)Cc1c(C(=O)NCCOc2ccc(C(=O)NO)cc2)oc2ccccc12 [Abexinostat] | 41.7 |
| CCCCN1CCC(CNC(=O)c2c3n(c4ccccc24)CCCO3)CC1 [Piboserod hydrochloride] | < 0 |
| CN1C2CCCC1CC(NC(=O)c1nn(C)c3ccccc13)C2 (stereo unspecified) [Granisetron hydrochloride] | < 0 |
| O=C(c1ccc(F)cc1)C1CCN(CCn2c(=O)[nH]c3ccccc3c2=O)CC1 [Ketanserin] | < 0 |

| SMILES | reduction in cell viability [%] |
| --- | --- |
| NCc1c[nH]c(=S)n1[C@H]1CCc2c(F)cc(F)cc2C1 [Nepicastat hydrochloride] | < 0 |
| OCCC#Cc1nc(-c2ccc(F)cc2)c(-c2ccncc2)n1CCCc1ccccc1 | < 0 |
| CC(C)n1nc(-c2ccc3oc(N)nc3c2)c2c(N)ncnc21 | 65.5 |
| Nc1nnc(-c2cccc(Cl)c2Cl)c(N)n1 [Lamotrigine] | < 0 |
| Cn1cc(-c2cnn3c(N)c(Br)c([C@@H]4CCCNC4)nc23)cn1 | 32 |
| CC(C)(C)c1nc(-c2cccc(NS(=O)(=O)c3c(F)cccc3F)c2F)c(-c2ccnc(N)n2)s1 [Dabrafenib] | < 0 |
| CCOc1ccn(-c2ccc(F)cc2)c(=O)c1C(=O)Nc1ccc(Oc2ccnc(N)c2Cl)c(F)c1 | < 0 |
| Cc1nc2cnc3ccc(C#Cc4cccnc4)cc3c2n1-c1ccc(C(C)(C)C#N)cc1 | 53.4 |
| O=C(O)[C@@H](c1ccc(OCc2ccc3ccccc3n2)cc1)C1CCCC1 [Veliflapon] | < 0 |
| NC(=O)c1ncn([C@@H]2O[C@H](CO)[C@@H](O)[C@H]2O)c1O [Mizoribine] | 2.62 |
| COc1cc2nccc(Oc3ccc(NC(=O)Nc4ccc(F)cc4F)c(F)c3)c2cc1OC | < 0 |
| Cc1ccnc(NS(=O)(=O)c2ccc(NC(=O)Nc3ccc(S(=O)(=O)Nc4nccc(C)n4)cc3)cc2)n1 | < 0 |
| Cc1c(OCC(F)(F)F)ccnc1C[S+]([O-])c1nc2ccccc2[nH]1 (stereo unspecified) [Lansoprazole] | < 0 |
| C[C@H]1C[C@H]2[C@@H]3CCC4=CC(=O)C=C[C@]4(C)[C@H]3C(=O)C[C@]2(C)[C@@]1(O)C(=O)CO [Meprednisone] | < 0 |
| COc1ccc(-c2oc3cc(OC)ccc3c2C(=O)c2ccc(C#N)cc2)cc1 | < 0 |
| C[C@@H]1CCN(C(=O)CC#N)C[C@@H]1N(C)c1ncnc2[nH]ccc12 [Tofacitinib] | < 0 |
| c1coc(CNc2ncnc3[nH]cnc23)c1 [Kinetin] | < 0 |
| Nc1ncnc2c1ncn2[C@@H]1O[C@H](CO)C[C@H]1O [Cordycepin] | < 0 |
| CCN(CC)C(=S)SSC(=S)N(CC)CC [Disulfiram] | 78.2 |
| COc1ccc2nc3cc(Cl)ccc3c(Nc3cc(CN4CCCC4)c(O)c(CN4CCCC4)c3)c2n1 [Pyronaridine] | < 0 |
